Measurements reported in PubChem BioAssay AID1259254 (NCATS, 2017).
Purpose: 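Finding genes that stop cells copying their DNA twice in one cycle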 (primary screen). Cells: human HCT116 colorectal cancer cells. Reagents: single siRNA against human genes. Duration: 3 days. Measured: 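Imaged Hoechst DNA stain sorts each cell into a cycle phase by DNA amount; per plate, G2 fraction set to 0% for non-targeting and 100% for GMNN siRNA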. Reading the numbers: G2 robust z-score and G2 cells, % of GMNN control: higher = more G2 cells, more excess DNA replication; raw share of cells in G2: higher = larger share of cells with G2 DNA content. Active means: 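An siRNA counts as active if its G2 robust z-score lies at least 5 MADs above the screen median; here such calls match roughly 38% of GMNN control or more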.
In all, the deposit lists about 59,000 reagents; this is an unselected part. About 1,550 of all reagents (2.6%) count as active. 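G2 share is only a proxy for re-replication; each gene was hit by three separate siRNAs, and active genes were retested.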 Raw values are not corrected between plates. A number with no mark means an inactive call. The numbers tell different reagents against one gene apart. The record does not give: the amount of reagent.

gene knocked down,siRNA no.,G2 robust z-score,"G2 cells, % of GMNN control",raw share of cells in G2 (%)
VDAC2 (GeneID 7417),1,-0.225,1.38,5.79
VDAC2 (GeneID 7417),2,-0.786,-2.56,3.92
VDAC2 (GeneID 7417),3,0.825,8.77,7.8
MT1G (GeneID 4495),1,-0.651,-1.61,3.59
MT1G (GeneID 4495),2,-0.602,-1.27,2.9
MT1G (GeneID 4495),3,-0.291,0.922,5.37
TXNL4A (GeneID 10907),1,0.424,5.95,5.76
TXNL4A (GeneID 10907),2,0.256,4.77,7.77
TXNL4A (GeneID 10907),3,0.371,5.58,8.68
GP1BA (GeneID 2811),1,3.02,24.2,14.5
GP1BA (GeneID 2811),2,2.63,21.5,13
GP1BA (GeneID 2811),3,0.0345,3.21,4.8
RASIP1 (GeneID 54922),1,0.469,6.27,5.85
RASIP1 (GeneID 54922),2,0.618,7.32,7.35
RASIP1 (GeneID 54922),3,0.633,7.42,5.65
MRPL3 (GeneID 11222),1,-0.71,-2.03,4.19
MRPL3 (GeneID 11222),2,-1.16,-5.16,2
MRPL3 (GeneID 11222),3,-0.507,-0.597,2.95
NEBL (GeneID 10529),1,-1.18,-5.35,2.11
NEBL (GeneID 10529),2,-1.3,-6.18,3.01
NEBL (GeneID 10529),3,-1.27,-5.96,4.13
NEBL (GeneID 10529),4,-0.465,-0.307,4.5
NEBL (GeneID 10529),5,-0.776,-2.49,2.92
NEBL (GeneID 10529),6,0.165,4.13,5.2
CASZ1 (GeneID 54897),1,0.314,5.18,4.62
CASZ1 (GeneID 54897),2,4.3,33.2,20.9
CASZ1 (GeneID 54897),3,-0.322,0.703,3.85
FERRY3 (GeneID 57102),1,0.493,6.44,6.88
FERRY3 (GeneID 57102),2,-0.413,0.0623,4.49
FERRY3 (GeneID 57102),3,-0.912,-3.45,1.94
TNFRSF12A (GeneID 51330),1,0.178,4.22,5.11
TNFRSF12A (GeneID 51330),2,0.243,4.67,6.24
TNFRSF12A (GeneID 51330),3,3.7,29,12.8
PDE6A (GeneID 5145),1,0.0711,3.47,5.92
PDE6A (GeneID 5145),2,-1.02,-4.23,3.03
PDE6A (GeneID 5145),3,-0.201,1.55,3.96
PLD4 (GeneID 122618),1,-1.04,-4.35,2.04
PLD4 (GeneID 122618),2,-0.457,-0.249,1.75
PLD4 (GeneID 122618),3,-0.295,0.892,4.45
SECISBP2 (GeneID 79048),1,1.77,15.5,11.3
SECISBP2 (GeneID 79048),2,-0.936,-3.62,2.99
SECISBP2 (GeneID 79048),3,0.644,7.5,4.68
GPT (GeneID 2875),1,-1.08,-4.63,3.5
GPT (GeneID 2875),2,-0.831,-2.88,2.63
GPT (GeneID 2875),3,1.95,16.7,11.3
TMEM150A (GeneID 129303),1,-1.02,-4.18,2.6
TMEM150A (GeneID 129303),2,0.704,7.92,5.61
TMEM150A (GeneID 129303),3,1.95,16.7,8.62
FBXO45 (GeneID 200933),1,5.76 (active),43.5,23
FBXO45 (GeneID 200933),2,5.53 (active),41.9,20
FBXO45 (GeneID 200933),3,0.575,7.01,9.3
TMEM231 (GeneID 79583),1,4.96,37.9,21.1
TMEM231 (GeneID 79583),2,-0.352,0.49,4.83
TMEM231 (GeneID 79583),3,-0.402,0.14,2.73
FBXO4 (GeneID 26272),1,5.18 (active),39.4,24
FBXO4 (GeneID 26272),2,1.49,13.4,8.65
FBXO4 (GeneID 26272),3,1.69,14.9,8.86
EBF3 (GeneID 253738),1,0.186,4.28,5.13
EBF3 (GeneID 253738),2,0.315,5.18,4.91
EBF3 (GeneID 253738),3,3.04,24.4,11
OVOL1 (GeneID 5017),1,3.78,29.6,13.8
OVOL1 (GeneID 5017),2,-0.202,1.54,4.07
OVOL1 (GeneID 5017),3,-1.25,-5.83,2.12
ZMIZ1 (GeneID 57178),1,0.609,7.25,6.86
ZMIZ1 (GeneID 57178),2,-0.583,-1.13,3.95
ZMIZ1 (GeneID 57178),3,-1.03,-4.31,3.86
PCDHB7 (GeneID 56129),1,1.63,14.4,9.61
PCDHB7 (GeneID 56129),2,-0.798,-2.65,3.23
PCDHB7 (GeneID 56129),3,-0.52,-0.689,6.13

An excerpt from above, reduced to “raw share of cells in G2 (%)”.
NEBL (GeneID 10529) #3: 4.13
NEBL (GeneID 10529) #4: 4.5
NEBL (GeneID 10529) #5: 2.92
NEBL (GeneID 10529) #6: 5.2
CASZ1 (GeneID 54897) #1: 4.62
CASZ1 (GeneID 54897) #2: 20.9
CASZ1 (GeneID 54897) #3: 3.85
